From PubChem BioAssay AID190 (DTP/NCI, 2004) come the findings set out here.

The list shows only some results of the screen, not a fair sample: it gathers tests that were run many times, whatever their T/C, doses with no T/C, and many T/C values between a quarter and a half above the control. Further doses and runs are listed elsewhere. T/C: endpoint of the treated group in % of that of the vehicle group. Some entries give survivors of the animals treated and no T/C: the source holds a T/C of zero for them, seemingly a mark for toxic or unscored doses. Some doses without a T/C left all or most animals alive at the check, yet need not have been tolerated: the source hardly ever lists a survival T/C far under the control, and the zero likely stands for such cases as well. Survivors were counted at the toxicity check, usually on the fifth day, unless a day is given; later deaths do not show. Schedules are NCI's codes, read here as Q, the interval in days (D) or hours (H), X, the number of doses. Some entries were tested several times; the values are given in rising order. Some schedule codes hold Z or #, which are not explained here. For survival time, the PubChem record calls one and a half times the control and up active, and a quarter to a half above the control has no call in these data; cut-offs in other NCI protocols can differ. Some T/C values carry the count of animals alive at the toxicity check (mostly the fifth day); where none is given, no animal had died by that day. Signs of the kind (2×) say how often a value occurs here.

This assay relates to AKR/Lw mice, AKR lymphoma ip, median survival T/C. Briefly: NCI In Vivo Anticancer Drug Screen. Data for tumor model Lymphoma AKR (Transplanted) (intraperitoneal) in AKR/Lw mice. The conditions noted are these: T/C endpoint: median survival time, higher T/C = longer survival. As to the method: The antitumor activity of compounds was measured in mice bearing transplantable tumors. Survival or tumor size were measured and the results are expressed as the measurement made in the treated group (T) divided by the measurement made in the vehicle treated control group (C). The tumor model used in this assay is Lymphoma AKR (Transplanted) (intraperitoneal) in AKR/Lw mice

Where [1] appears, read: dose: 75.0 mg/kg/injection, schedule: Q04DX003 (ip), vehicle: saline.
The mark [2] stands for this setting: dose: 100.0 mg/kg/injection, schedule: Q04DX003 (sc), vehicle: steroid suspending solution.
Where [3] appears, read: dose: 200.0 mg/kg/injection, schedule: Q04DX003 (sc), vehicle: steroid suspending solution.
Where [4] appears, read: dose: 400.0 mg/kg/injection, schedule: Q01DX001 (sc), vehicle: steroid suspending solution.
Setting [5] is: dose: 10.0 mg/kg/injection, schedule: Q01DX009 (ip), vehicle: saline.
Where [6] appears, read: dose: 12.5 mg/kg/injection, schedule: Q04DX003 (ip), vehicle: saline.
The mark [7] stands for this setting: dose: 20.0 mg/kg/injection, schedule: Q01DX009 (ip), vehicle: saline.
Where [8] appears, read: dose: 25.0 mg/kg/injection, schedule: Q01DX009 (ip), vehicle: saline.
Setting [9] is: dose: 50.0 mg/kg/injection, schedule: Q04DX003 (ip), vehicle: saline.
The mark [10] stands for this setting: dose: 100.0 mg/kg/injection, schedule: Q01DX001 (ip), vehicle: saline.
The mark [11] stands for this setting: dose: 200.0 mg/kg/injection, schedule: Q01DX001 (ip), vehicle: saline.
Setting [12] is: dose: 400.0 mg/kg/injection, schedule: Q01DX001 (ip), vehicle: saline.

For `C[C@]12C=CC(=O)C=C1CC[C@@H]1[C@@H]2C(=O)C[C@@]2(C)[C@H]1CC[C@]2(O)C(=O)CO`, the survivor count is 10 of 10 (dose: 12.5 mg/kg/injection, schedule: Q01DX004 (sc), vehicle: steroid suspending solution); 10 of 10 (dose: 25.0 mg/kg/injection, schedule: Q01DX009 (sc), vehicle: steroid suspending solution); 10 of 10 (dose: 50.0 mg/kg/injection, schedule: Q01DX009 (sc), vehicle: Klucel (hydroxypropylcellulose) (HPC)); 9 of 10 and 10 of 10 (dose: 50.0 mg/kg/injection, schedule: Q01DX009 (sc), vehicle: steroid suspending solution); 10 of 10 (dose: 75.0 mg/kg/injection, schedule: Q01DX009 (sc), vehicle: steroid suspending solution); 10 of 10 under setting [1]. For the same compound, the survivor count was 10 of 10 (dose: 100.0 mg/kg/injection, schedule: Q01DX009 (sc), vehicle: Klucel (hydroxypropylcellulose) (HPC)); 10 of 10 (dose: 100.0 mg/kg/injection, schedule: Q01DX009 (sc), vehicle: steroid suspending solution); 8 of 10 and 10 of 10 under setting [2]; 10 of 10 (dose: 100.0 mg/kg/injection, schedule: Q## X008 (sc), vehicle: steroid suspending solution); 10 of 10 (dose: 150.0 mg/kg/injection, schedule: Q01DX009 (sc), vehicle: steroid suspending solution); 9 of 10 (dose: 200.0 mg/kg/injection, schedule: Q01DX004 (sc), vehicle: steroid suspending solution). Also, the survivor count is 10 of 10 (dose: 200.0 mg/kg/injection, schedule: Q01DX009 (ip), vehicle: water); 10 of 10 (dose: 200.0 mg/kg/injection, schedule: Q01DX009 (sc), vehicle: Klucel (hydroxypropylcellulose) (HPC)); 7 of 10 and 10 of 10 under setting [3]; 10 of 10 (dose: 300.0 mg/kg/injection, schedule: Q01DX004 (sc), vehicle: steroid suspending solution); 10 of 10 under setting [4]; 10 of 10 (dose: 400.0 mg/kg/injection, schedule: Q01DX004 (sc), vehicle: steroid suspending solution). In addition, the survivor count was 10 of 10 (dose: 400.0 mg/kg/injection, schedule: Q01DX009 (ip), vehicle: water) and 9 of 10 (dose: 400.0 mg/kg/injection, schedule: Q04DX003 (sc), vehicle: steroid suspending solution). For the same compound, the T/C is, setting by setting: (dose: 50.0 mg/kg/injection, schedule: Q01DX001 (sc), vehicle: steroid suspending solution) 90, 97, 110, 128 % of control; (dose: 75.0 mg/kg/injection, schedule: Q04DX003 (sc), vehicle: steroid suspending solution, evaluated on day 45) 113 (2×) and 117 % of control; (dose: 75.0 mg/kg/injection, schedule: Q04DX003 (sc), vehicle: steroid suspending solution, evaluated on day 60) 111 % of control; (dose: 100.0 mg/kg/injection, schedule: Q01DX001 (sc), vehicle: steroid suspending solution) 89, 92, 93, 95 % of control; under setting [2], 97, 108, 125 % of control [8 of 10 alive]; under setting [3], 135 % of control. For the same compound, under setting [4], the T/C is listed as 93, 104, 111 % of control.
Turning to `CN(C)C(=O)c1cccc(COc2ccc(N3C(N)=NC(N)=NC3(C)C)cc2Cl)c1`, the T/C (dose: 2.5 mg/kg/injection, schedule: Q01DX009 (ip), vehicle: saline) is 94, 131 [9 of 10 alive], 142, 143 % of control; the T/C (dose: 3.1 mg/kg/injection, schedule: Q04DX003 (ip), vehicle: saline) is 141 % of control; the T/C (dose: 5.0 mg/kg/injection, schedule: Q01DX009 (ip), vehicle: saline) is 112, 121 [9 of 10 alive], 129, 133 % of control; the T/C under setting [5] is 121, 133, 136, 150 % of control; the T/C (dose: 12.5 mg/kg/injection, schedule: Q01DX009 (ip), vehicle: saline) is 97 [9 of 10 alive], 100, 111, 121, 128 % of control; the T/C under setting [6] is 105, 167, 169 % of control. Besides, the T/C was 128 % of control under setting [7]; 97 [8 of 10 alive], 97 [9 of 10 alive], 119 [9 of 10 alive], 157 % of control under setting [8]; 100 [7 of 10 alive], 102 (2×), 105 [9 of 10 alive], 117, 144, 161 % of control (dose: 25.0 mg/kg/injection, schedule: Q04DX003 (ip), vehicle: saline); 103, 104, 111 [8 of 10 alive], 115 % of control (dose: 50.0 mg/kg/injection, schedule: Q01DX001 (ip), vehicle: saline); 100 [8 of 10 alive], 105, 118, 120 [9 of 10 alive], 133 % of control under setting [9]; 116, 150 [9 of 10 alive], 155 % of control [8 of 10 alive] under setting [1]. Further, the T/C under setting [10] is 100 and 118 % of control [7 of 10 alive]; the T/C under setting [11] is 106 and 118 % of control [9 of 10 alive]. Moreover, the survivor count is reported as 4 of 10 (dose: 3.1 mg/kg/injection, schedule: Q01DX005 (ip), vehicle: saline); 4 of 10 (dose: 6.2 mg/kg/injection, schedule: Q01DX005 (ip), vehicle: saline); 10 of 10 under setting [5]; 4 of 10 (dose: 12.5 mg/kg/injection, schedule: Q01DX005 (ip), vehicle: saline); 5 of 10 under setting [6]; 10 of 10 under setting [7]. Also, the survivor count runs as follows: (dose: 25.0 mg/kg/injection, schedule: Q01DX005 (ip), vehicle: saline) 10 of 10; under setting [8], 5 of 10; (dose: 30.0 mg/kg/injection, schedule: Q01DX009 (ip), vehicle: saline) 10 of 10; (dose: 40.0 mg/kg/injection, schedule: Q01DX009 (ip), vehicle: saline) 10 of 10; (dose: 50.0 mg/kg/injection, schedule: Q01DX005 (ip), vehicle: saline) 10 of 10; (dose: 50.0 mg/kg/injection, schedule: Q01DX009 (ip), vehicle: saline) 5 of 10 and 10 of 10. Moreover, the survivor count was 6 of 10 and 9 of 10 under setting [9]; 1 of 10, 6 of 10, 8 of 10 under setting [1]; 1 of 10 under setting [10]; 0 of 10, 3 of 10, 4 of 10, 10 of 10 (dose: 100.0 mg/kg/injection, schedule: Q04DX003 (ip), vehicle: saline); 4 of 10 (dose: 150.0 mg/kg/injection, schedule: Q04DX003 (ip), vehicle: saline); 0 of 10 under setting [11]. In addition, the survivor count was 0 of 10 and 3 of 10 (dose: 200.0 mg/kg/injection, schedule: Q04DX003 (ip), vehicle: saline); 0 of 10 (dose: 300.0 mg/kg/injection, schedule: Q01DX001 (ip), vehicle: saline); 5 of 10 (dose: 300.0 mg/kg/injection, schedule: Q04DX003 (ip), vehicle: saline); 0 of 10 under setting [12]; 0 of 10 (dose: 600.0 mg/kg/injection, schedule: Q01DX001 (ip), vehicle: saline).
On to `OCC#CC#CCO`, for which the survivor count under setting [12] is on record as 0 of 10.
